Reference: US12268747B2, “Polypeptides having anti-senescent effects and uses thereof” (OneSkin, Inc., priority 2019, dated 2025)
At least one peptide structure holds a part that was inferred or is arguable (an end, a ring closure or a residue). Peptide text beside a SMILES is read from it.

Experiments:
[1] = tested on: primary fibroblasts isolated from 3 healthy chronologically aged (elder) donors; assay: ATRX foci immunostaining in fibroblasts of aged donors; format: cell-based, human; details: 500 nM and 50 nM, 48 hours
MeWo cells = assay: Melanin content of MeWo cells, 14 days or interrupted on 7th day; format: cell-based, human
Description: The skin frequently may experience rebound hyperpigmentation, where pigmentation is reestablished in the skin after the discontinuation of the lightening treatment(s). To test whether the depigmentation effect of Peptide 14 remained after the Peptide 14 treatment was discontinued, MeWo cells were cultured in DMEM supplemented with 10% v/v FBS and 1% v/v of penicillin/streptomycin solution (1,000 U·mL^−1) at 5% CO2, 37° C. and 95% humidity. For two weeks prior to treatment with one of the experimental conditions (pre-treatment), the MeWo cells were cultured with isobutyl methylxanthine (IBMX) to stimulate melanin synthesis. After the MeWo cells were seeded in 6-well plates at 1,000,000 cells per well for 6 hours, the cells were incubated with one of the experimental conditions for 14 days and analyzed for intracellular and supernatant melanin content.
The experimental conditions included a positive control group, a negative control group, a Peptide 14 (IBMX) 14 days group, a retinoic acid (IBMX) 14 days group, a Peptide 14 (IBMX) interrupted on 7th day group, and a retinoic acid (IBMX) interrupted on 7th day group. The negative control group comprised MeWo cells which were stimulated with 25 μM IBMX for 2 weeks in the pre-treatment period and then were untreated for 14 days, receiving the vehicle only, after being plated for the experiment. The positive control group comprised MeWo cells that were incubated with 25 μM IBMX during the entire experiment, for 2 weeks in the pre-treatment period and for 14 days in the treatment period. Some of the groups were treated with both IBMX 25 μM for 7 or 14 days, as well as 3.12 μM Peptide 14, or both IBMX 25 μM (for 7 or 14 days), as well as retinoic acid 2 μM. The Peptide 14 (IBMX) 14 day group comprised MeWo cells that were incubated with 25 μM IBMX 2 weeks in the pre-treatment period and then treated for 14 days with 25 μM IBMX and 3.12 μM Peptide 14. The retinoic acid (IBMX) 14 day group comprised MeWo cells that were incubated with 25 μM IBMX 2 weeks in the pre-treatment period and then treated for 14 days with 25 μM IBMX and 2 μM retinoic acid. […]
After treatment, the melanin content in the cell pellet and the cell culture supernatant was assessed by the absorbance of the samples at 492 nm. […] Data are presented as relative melanin content, absorbance of the samples at a specified wavelength (492 nm) normalized to the […] absorbance of the negative control samples also as the same wavelength. […] The data were analyzed using ANOVA and Bonferroni post-hoc test when a statistical significance was detected. […]

[2] = tested on: facial skin of human subjects; assay: Split-face clinical study of topical application; format: in vivo
[3] = tested on: human skin equivalents from elder donors; assay: Human skin equivalents: histology score and morphology (Example 18); format: cell-based; details: 0.01% w/v (or 1 μM), 5 days; vehicle control 21.00
Description: To test the effect of Peptide 13 and Peptide 14 treatment on human skin models and the skin morphology, human primary fibroblasts and keratinocytes isolated from healthy elder donors were used to build human skin equivalents. The skin equivalents were treated with 0.01% w/v (or 1 μM) of Peptide 13 or Peptide 14 for 5 days. The negative controls were treated with formulation only. After the 5-day culture, the skin equivalents were analyzed for epidermal thickness, which was quantified according to total epidermal area. Quality assessment based several parameters was performed by blind analysts. […] A minimal score of 19 was required for batch use. This score was validated internally and shown to decrease with age/senescence of the skin equivalents or cultured cells. Three independent experiments were performed with three technical replicates. Data were analyzed using a t-test. Statistical significance was determined as p-values equal or lower than 0.05. The statistically significant p-values are noted by * for p<0.05; ** for p<0.01; *** for p<0.001; **** for p<0.0001 between the groups.

[4] = tested on: p16, IL-8, MMP1 mRNA in human skin equivalents; assay: Human skin equivalents: RT-qPCR gene expression in epidermis and dermis; format: cell-based; details: 0.01% w.v., 5 days
[5] = 7 day treatment, then 7 days 25 μM IBMX only

## CC[C@H](C)[C@H](NC(=O)CNC(=O)[C@H](CCCCN)NC(=O)[C@H](CC(C)C)NC(=O)[C@H](Cc1c[nH]c2ccccc12)NC(=O)[C@H](Cc1c[nH]cn1)NC(=O)[C@H](CCCCN)NC(=O)[C@H](C)NC(=O)[C@@H](NC(=O)[C@@H](N)CCC(=O)O)[C@@H](C)O)C(=O)O [Peptide 14, ETAKHWLKGI] (H-ETAKHWLKGI-OH; N-terminus and C-terminus assumed)
[1]
  number of cells with less than 10 ATRX foci/nuclei: increased
[1]; vs untreated cells
  ATRX foci/nuclei: significantly decreased
MeWo cells; [5]
  relative melanin content, cell culture supernatant: about 100%
  relative melanin content, cell pellet: about 40%
MeWo cells; 14 day treatment, Peptide 14 3.12 μM or retinoic acid 2 μM with 25 μM IBMX, positive control 25 μM IBMX, normalized to cell number and negative control
  relative melanin content, cell pellet: about 90%
MeWo cells; 14 day treatment, positive control 25 μM IBMX
  relative melanin content, cell culture supernatant: about 50%
[2]; 0.01% cream, 12 weeks, 22 patients
  patients with reduction in appearance of skin wrinkles, blind expert opinion: 87%
[2]; 0.01% formulation
  Dermascan dermal thickness (density) and echogenicity vs negative control side: No significant differences
  Visia overall skin appearance vs negative control side: No significant differences
[2]; 0.01% formulation daily, week 6 continued to week 12
  expert clinical grading vs baseline: lines/wrinkles, skin tone (evenness), pores, texture/smoothness, firmness, elasticity, overall appearance: statistically significant improvements
[2]; 0.01% formulation daily, week 12
  expert clinical grading vs baseline: appearance of radiance/luminosity: statistically significantly improved
[2]; 0.01%, 12 weeks
  appearance vs baseline (FIG. 16 example): decreased the appearance of lines and wrinkles
[2]; 12 weeks
  patients with improved skin elasticity, blind expert opinion: 90%
  patients with improvement in appearance of pores, blind expert opinion: 95.5%
  patients with improvement in firmness, blind expert opinion: 95.5%
  patients with improvement in radiance, blind expert opinion: 95.5%
  patients with improvement in skin evenness, blind expert opinion: 95.5%
  subjects presenting better overall appearance, blind expert opinion: All subjects
  subjects presenting better skin texture/smoothness, blind expert opinion: All subjects
[2]; 12 weeks vs baseline
  MPI, skin barrier (Vapometer): 14.19%
  MPI, skin radiance (VISIA): 16.63%
  MPI, skin roughness (Antera): 5.05%
[2]; 12 weeks vs baseline, expert
  MPI, appearance of pores: 4.58%
  MPI, appearance of skin wrinkles: 3.3%
  MPI, firmness: 5.43%
  MPI, overall appearance: 6.17%
  MPI, radiance: 5.06%
  MPI, skin elasticity: 4.75%
  MPI, skin evenness: 4.4%
  MPI, skin texture/smoothness: 7.46%
[2]; 12 weeks, instrumental
  subjects with better skin barrier, Vapometer evaluation: 81%
  subjects with better skin radiance, VISIA evaluation: 73%
  subjects with better skin roughness, Antera evaluation: 73%
[2]; subjects' perception
  subjects who considered better hydration: greater than 80%
  subjects who considered better skin appearance: greater than 80%
  subjects who considered better skin firmness: greater than 80%
  subjects who considered better skin texture: greater than 80%
  subjects who noticed an improvement in skin radiance: 78%
[2]; week 6
  TEWL improvement by VapoMeter vs negative control side: better
  collagen level by SIAScope vs negative control side: higher
[2]; week 12
  Antera texture (roughness) vs negative control side: better
[3]
  mean of histology scores (maximum 28): 23.83
[4]
  IL-8 expression in the dermis: decreased expression
  MMP-1 expression in the dermis: decreased expression
  p16 expression in dermis: significant decrease
  p16 expression in epidermis: significant decrease
